The list is a part of this screen's results and no random one: it is rich in T/C values a quarter to a half above the control, in often repeated tests (any T/C) and in doses without a T/C. Other doses and runs of a compound stand elsewhere. T/C: endpoint of the treated group in % of that of the vehicle group. Some doses have a count of surviving animals in place of a T/C: the source files T/C as zero there, which appears to mark a toxic dose or a test without result, not a measured value. Some survivor counts are full or nearly so, which does not show that the dose was tolerated: survival well below the control is almost never listed, so the zero probably covers shortened survival too. Survivors were counted at the toxicity check, usually on the fifth day, unless a day is given; later deaths do not show. Schedule codes are those of the source, read here as Q, the interval in days (D) or hours (H), X, the number of doses. Some molecules as drawn cover several salts, stereoisomers or complexes of the source; a dose is that of the sample tested. Some entries hold several experiments; the values are given in rising order. For survival time, the PubChem record calls one and a half times the control and up active, and a quarter to a half above the control has no call in these data; cut-offs in other NCI protocols can differ. Some T/C values are followed by the survivors on the day toxicity was checked, most often the fifth; where none is given, no animal had died by that day.
Tested on: P388 leukemia ip, CD2F1 mice, survival T/C
Test: NCI In Vivo Anticancer Drug Screen. Data for tumor model P388 Leukemia (intraperitoneal) in CD2F1 (CDF1) mice
Conditions: T/C endpoint: median survival time, higher T/C = longer survival
[1] = dose: 240.0 mg/kg/injection, schedule: Q01DX005 (ip), vehicle: saline
[2] = dose: 200.0 mg/kg/injection, schedule: Q04DX003 (ip), vehicle: Klucel (hydroxypropylcellulose) (HPC)
[3] = dose: 400.0 mg/kg/injection, schedule: Q04DX003 (ip), vehicle: saline with Tween-80
[4] = dose: 100.0 mg/kg/injection, schedule: Q01DX005 (ip), vehicle: Klucel (hydroxypropylcellulose) (HPC)
[5] = dose: 200.0 mg/kg/injection, schedule: Q01DX005 (ip), vehicle: Klucel (hydroxypropylcellulose) (HPC)
[6] = dose: 120.0 mg/kg/injection, schedule: Q01DX005 (ip), vehicle: Klucel (hydroxypropylcellulose) (HPC)
[7] = dose: 240.0 mg/kg/injection, schedule: Q01DX005 (ip), vehicle: Klucel (hydroxypropylcellulose) (HPC)

With `CN1C(C)(C)CC(O)CC1(C)C` the survivor count [1] was 2 of 6.
In the case of `C1CNCCNCCNCCN1`, the survivor count (dose: 200.0 mg/kg/injection, schedule: Q01DX009 (ip), vehicle: water) is reported as 4 of 6.
For `Cc1cnc(I)[nH]1`, the survivor count (dose: 400.0 mg/kg/injection, schedule: Q01DX001 (ip), vehicle: saline) was 4 of 6.
`CC1=CC(=Nc2ccc(N(CCCl)CCCl)cc2)C=C(C)C1=O` was tested, and the T/C (dose: 3.13 mg/kg/injection, schedule: Q01DX009 (ip), vehicle: Klucel (hydroxypropylcellulose) (HPC)) was 128 % of control, the T/C (dose: 12.5 mg/kg/injection, schedule: Q01DX009 (ip), vehicle: Klucel (hydroxypropylcellulose) (HPC)) was 139 % of control and the T/C (dose: 25.0 mg/kg/injection, schedule: Q01DX009 (ip), vehicle: saline) was 137 % of control. For the same compound, the T/C (dose: 50.0 mg/kg/injection, schedule: Q01DX009 (ip), vehicle: saline) was 133 % of control [5 of 6 alive], the T/C (dose: 100.0 mg/kg/injection, schedule: Q01DX009 (ip), vehicle: Klucel (hydroxypropylcellulose) (HPC)) was 130 % of control and the survivor count (dose: 100.0 mg/kg/injection, schedule: Q01DX009 (ip), vehicle: other) was 6 of 6. The T/C (dose: 100.0 mg/kg/injection, schedule: Q01DX009 (ip), vehicle: saline) was 149 % of control.
For `Cc1ccc(C)c(N=Nc2ccc(O)cc2)c1`, the survivor count (dose: 200.0 mg/kg/injection, schedule: Q04DX003 (ip), vehicle: saline with Tween-80) was 1 of 6.
In the case of `Clc1cc(-c2ccccc2)no1`, the survivor count [2] is reported as 2 of 6 and the survivor count (dose: 400.0 mg/kg/injection, schedule: Q04DX003 (ip), vehicle: Klucel (hydroxypropylcellulose) (HPC)) is reported as 0 of 6.
With `CCCC(CC)(C(=O)Nc1ccc2nc(C)cc(N)c2c1)C(=O)Nc1ccc2nc(C)cc(N)c2c1` the survivor count (dose: 200.0 mg/kg/injection, schedule: Q01DX005 (ip), vehicle: saline with Tween-80) was 3 of 5.
With `CCOc1cccc2c(NCCCCCCCCNc3c4ccccc4nc4c(OCC)cccc34)c3ccccc3nc12` the T/C (dose: 0.63 mg/kg/injection, schedule: Q01DX009 (ip), vehicle: other) was 129 % of control, the T/C (dose: 1.25 mg/kg/injection, schedule: Q01DX009 (ip), vehicle: other) was 138 % of control and the T/C (dose: 2.5 mg/kg/injection, schedule: Q01DX009 (ip), vehicle: other) was 146 % of control. The T/C (dose: 5.0 mg/kg/injection, schedule: Q01DX009 (ip), vehicle: other) was 141 % of control, the T/C (dose: 10.0 mg/kg/injection, schedule: Q01DX009 (ip), vehicle: other) was 148 % of control and the survivor count (dose: 15.0 mg/kg/injection, schedule: Q01DX009 (ip), vehicle: other) was 3 of 4. For the same compound, the survivor count (dose: 20.0 mg/kg/injection, schedule: Q01DX009 (ip), vehicle: other) was 2 of 4.
`COc1cccc([N+]([O-])=NC#N)c1` was tested, and the survivor count (dose: 100.0 mg/kg/injection, schedule: Q04DX003 (ip), vehicle: Klucel (hydroxypropylcellulose) (HPC)) was 0 of 6 and the survivor count [2] was 0 of 6.
For `COc1ccc(OC)c(C(/C=N/O)OC)c1` (stereo not given), the survivor count [3] was 6 of 6.
`Cc1cnc2c(N)nn(-c3ccccc3)c2n1` was tested, and the survivor count [3] was 3 of 6.
In the case of `C=CC(C)(C)c1ccc(O)c(CC=C(C)C)c1`, the survivor count [4] is reported as 1 of 5 and the survivor count [5] is reported as 0 of 5.
In the case of `C=C(CN(C)C)C(=O)c1cc(C)ccc1C`, the survivor count (dose: 7.5 mg/kg/injection, schedule: Q01DX005 (ip), vehicle: saline) is reported as 1 of 6, the survivor count (dose: 15.0 mg/kg/injection, schedule: Q01DX005 (ip), vehicle: saline) is reported as 0 of 6 and the survivor count (dose: 30.0 mg/kg/injection, schedule: Q01DX005 (ip), vehicle: saline) is reported as 0 of 6. For the same compound, the survivor count (dose: 60.0 mg/kg/injection, schedule: Q01DX005 (ip), vehicle: saline) was 0 of 6, the survivor count (dose: 120.0 mg/kg/injection, schedule: Q01DX005 (ip), vehicle: saline) was 0 of 6 and the survivor count [1] was 0 of 6.
With `CCc1nc(N)nc(N)c1-c1ccc(Cl)c(N=[N+]=[N-])c1` the T/C (dose: 50.0 mg/kg/injection, schedule: Q01DX009 (ip), vehicle: distilled water + Tween-80) was 132 % of control, the T/C (dose: 100.0 mg/kg/injection, schedule: Q01DX009 (ip), vehicle: distilled water + Tween-80) was 125 % of control and the survivor count [6] was 4 of 6. The survivor count [7] was 0 of 6.
With `Cc1csc(Cl)c1NC1=NCCN1` the survivor count (dose: 200.0 mg/kg/injection, schedule: Q01DX005 (ip), vehicle: saline) was 0 of 6.
With `Cl[C](Cl)(Cl)[Hg][C](Cl)(Cl)Cl` the survivor count (dose: 6.25 mg/kg/injection, schedule: Q01DX009 (ip), vehicle: saline with Tween-80) was 2 of 6, the survivor count (dose: 12.5 mg/kg/injection, schedule: Q01DX009 (ip), vehicle: saline with Tween-80) was 0 of 6 and 2 of 6 and the survivor count (dose: 25.0 mg/kg/injection, schedule: Q01DX009 (ip), vehicle: saline with Tween-80) was 0 of 6. The survivor count (dose: 50.0 mg/kg/injection, schedule: Q01DX009 (ip), vehicle: saline with Tween-80) was 0 of 6, the survivor count (dose: 100.0 mg/kg/injection, schedule: Q01DX009 (ip), vehicle: saline with Tween-80) was 0 of 6 and the survivor count (dose: 200.0 mg/kg/injection, schedule: Q01DX009 (ip), vehicle: saline with Tween-80) was 0 of 6.
`O=C1C(c2ccc3ccccc3n2)=C(O)c2ccccc21` was tested, and the survivor count [6] was 3 of 6 and the survivor count [7] was 1 of 6.
`O=C(c1ccc2cc(Cl)c(Cl)cc2c1)C(Cl)Cl` was tested, and the survivor count (dose: 25.0 mg/kg/injection, schedule: Q01DX009 (ip), vehicle: Klucel (hydroxypropylcellulose) (HPC)) was 6 of 6 and the survivor count (dose: 50.0 mg/kg/injection, schedule: Q01DX009 (ip), vehicle: Klucel (hydroxypropylcellulose) (HPC)) was 0 of 6.
With `Nc1ncc2[nH]c(N)nc2n1` the survivor count [4] was 2 of 6 and the survivor count [5] was 0 of 6.

Source: PubChem BioAssay AID330 (DTP/NCI, 2004)
